Source: PubChem BioAssay AID1159506 (NCATS, 2015).

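Genome-wide siRNA knockdown in TC32 Ewing sarcoma cells, comparing luciferase light from an NR0B1-promoter reporter with a CMV-promoter reporter 48 hours after transfection. Each siRNA was applied at 20 nM. A z-score of the log NR0B1-over-CMV signal, less the median of siRNAs with the same seed; more negative means a stronger specific loss of the NR0B1 reporter.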

This is part of the screen; most of the strongest results are not listed here. Sequences are the guide (antisense) strand, without overhang.

siRNA	target gene	seed-corrected z-score
UUUGGAUCCAGAGACAGGA	COA1	0.2125
AACACGAUCAGGUAGGAGC	SLC13A2	0.09744
UGGAAUUGCAAUCUGAUCU	SLC23A1	1.062
UUUAUCACGAUCAUAGAGC	GLCCI1	-0.1981
UCUGAUGCAUUUUCUUGAG	EBPL	-0.2187
UCUCGAACCAUCUUGUGAG	RAB3IL1	-0.3064
AAUGUUACGAAUAAGAGGU	STARD3NL	0.8593
UGUUGUACGAGAGAAAGGC	TMTC1	0.7201
UUUUGCUGGAUAUUUUUCC	UBE2E2	-0.257
UUCCGAGAUACUGCAGCUG	EHMT1	0.2442
AACAUAGUCAGUAACAACU	SDHD	-0.1369
UUCGGUAUCAUUAUCAUUA	BMP2KL	0.1591
UCAAGUUUGGGCGACAUGG	CSPG5	0.4743
AAUGUGAUUGCGACAUUGU	SLC25A51	1.623
UCAGGGAACGGCUUGGUCU	RUNX3	-0.1974
UUCCUAUUAGGAUCUGGUG	C2orf78	-0.4175
UCAGGGAGUUUUGCGUGGC	CRCT1	-0.01793
UUUGGGUCCACCAAAUGCG	CDKN1B	-0.2335
ACUCGAAUCAUGGUCAUGC	ST6GALNAC3	0.3291
AGCUGUAUAAGGCAAAUGC	MEMO1	0.7437
UAUCCAUCGACAAUGACCG	ZBTB21	-0.02701
ACUCGGAUUAUUCCAAGGG	MAPK1IP1L	0.4009
ACAGCAUGAACUCAAAGGC	CDK20	0.5146
UUGCGUGUUGGAGUUAAGC	PLAU	-0.1207
AUUGUUCCAAAGAAUAUGG	OR5AP2	1.632
AAUCUUAAGGAAGGUGACG	ADORA1	-0.2099
UCAAUUUCGAUCUCAGUUC	HES7	0.1662
UAUGCAGUAAACAAGGAAG	SLC22A24	-0.1714
UACGAUGACAUCAUAGACC	SON	0.8932
AAAGUCAUCAGGGCAGGCG	JAG2	1.029
UGAAUCAUGAGUCACAUCC	NUDT15	-0.4817
UAGACGGUCAAGUUGGUCC	HGSNAT	0.3312
UACAUUUGCGCGUUCACGU	BCL3	0.486
UGUUCAAUUGCAGACUUCC	RAPGEF5	-0.249
UUGAAGUCCUUUUCGAUGG	MRPL41	1.64
UGACCGAAAACGAAGUUGU	TUBB4B	-0.1795
UUUCCAACCUUGCCGAUUC	PSMD7	0.2994
AUUGUAAGCAUAAUCAUCC	TAF1A	1.131
UGGUUUGUGAUAGAUCAGC	SERPINA2	-0.6902
UAUAGUAUCCUUCCGUGUC	NHS	-0.1339
UUCAGAAAUGAUGAGAUAG	RFPL4AL1	0.1135
UCUUUAUGAAUAUCAACUG	ABI2	-0.007611
UUGGAGGUCAUUUCUACCU	C12orf54	-0.7152
UUAUGUUUCCGUUGAUGAC	EIF3G	0.255
UAUAGUCCAUGAAUUCAGC	AKIP1	0.2125
UUGCAGGUAAGGUCACAGC	VWCE	-0.4836
AACCUUACUAUAAUGCCUG	PIWIL1	0.3161
UCCUGAGGAACCUUUGUCC	ZFP41	-0.8775
UCCACUGUUAACAAGGUCC	APOBEC1	-0.3108
UUCCUCAAAAUGGACAUCA	PGBD2	-0.428
UUAACGAAAGAAUUCAUGA	HIST1H2BC	0.4007
UUUAUGGGAAACACUCGCC	LOC727925	-1.366
UGUAUUCACAAGGUCACAU	GOLGA6L7P	-1.074
UUCCUAACCAGCUCAGCUC	CPTP	0.5246
AUCAUUCUCCCAUCUGAUG	LSM8	0.9391
AUAGGAUACCGAACAGUGC	NCAN	0.211
UCUGUUAGAAAAGCAAAGC	SDR42E1	0.285
AUCGUUUAAGCAGUUUAGG	MTMR12	-1.73

6 of the entries, repeated:

- ACUCGGAUUAUUCCAAGGG against MAPK1IP1L | seed-corrected z-score 0.4009
- UUAACGAAAGAAUUCAUGA against HIST1H2BC | seed-corrected z-score 0.4007
- UUCCUCAAAAUGGACAUCA against PGBD2 | seed-corrected z-score -0.428
- UACGAUGACAUCAUAGACC against SON | seed-corrected z-score 0.8932
- UUAUGUUUCCGUUGAUGAC against EIF3G | seed-corrected z-score 0.255
- UACAUUUGCGCGUUCACGU against BCL3 | seed-corrected z-score 0.486